Source: paper PMC9231133
No constants are given. Whether binding was seen depends on the method and setting. In cells and extracts the contact can be indirect. Some entries that bind do so weakly or less than the wild type.

By UniProt entry, the sequences of proteins in these tests, tags left out. Residues count along the entry.
UniProt Q13153, residues 70-117: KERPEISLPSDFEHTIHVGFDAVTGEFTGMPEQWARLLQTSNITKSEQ
UniProt P60953: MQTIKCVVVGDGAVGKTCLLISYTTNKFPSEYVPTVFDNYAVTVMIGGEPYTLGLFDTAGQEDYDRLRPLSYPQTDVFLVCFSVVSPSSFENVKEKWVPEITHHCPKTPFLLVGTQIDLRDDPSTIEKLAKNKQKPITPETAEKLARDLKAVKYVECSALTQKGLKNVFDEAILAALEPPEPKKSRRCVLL

Key:
[1] = target: PAK-PBD (pGEXTK-Pak-1 70-117) on glutathione beads (UniProt Q13153); assay: pull-down; only the target purified
[2] = target: PAK-PBD (pGEXTK-Pak-1 70-117) on glutathione beads (UniProt Q13153); assay: pull-down; control HaCaT lysates loaded with 200 µM GTP-gamma-S (150 mM EDTA, 15 min, room temperature, stopped with 600 mM MgCl2), then PAK-PBD glutathione beads for 1 h; Cdc42 western blot; only the target purified

binding [1]: binds
binding [2]: binds
Substance: Cdc42 GTPase (from UniProt P60953 1-191)
